Test results: publication PMC11442487
These are yes or no findings as the source states them, for the method shown. Binding seen in cells or lysates may run through a third protein. These calls come from enrichment with a bait or labelling near it, and not all partners need be listed.

Protein sequences, listed by entry. Tags and fused reporters are not part of them. Residues count along the entry.
UniProt P07750, residues 21-140: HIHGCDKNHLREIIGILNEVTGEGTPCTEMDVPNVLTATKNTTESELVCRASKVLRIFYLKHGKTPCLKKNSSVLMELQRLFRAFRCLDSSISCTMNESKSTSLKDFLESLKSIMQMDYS

Target: T1, Trem2 (triggering receptor expressed on myeloid cells 2), overexpressed in macrophage cells (UniProt Q99NH8)
T1 sequence: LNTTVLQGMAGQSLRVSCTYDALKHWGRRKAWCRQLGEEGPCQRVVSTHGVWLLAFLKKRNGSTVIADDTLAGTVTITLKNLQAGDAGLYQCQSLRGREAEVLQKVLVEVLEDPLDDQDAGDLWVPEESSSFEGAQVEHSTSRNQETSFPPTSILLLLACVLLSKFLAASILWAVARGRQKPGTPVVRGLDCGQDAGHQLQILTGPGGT
Assay: affinity purification with mass spectrometry; immunoprecipitation (Millipore 17-500) from 1x10^7 macrophage cells stably overexpressing Trem2, high glucose 25 mM, LPS 100 ng/mL 6 h; gel bands digested with trypsin, LC-MS/MS

With “interleukin (IL)-4, in macrophage cells (from UniProt P07750 21-140) (ligand)” the binding was “binds”.
